The text below walks through data of patent EP4477665A1 (AffyXell Therapeutics Co., Ltd., dated 2024).

These are yes or no findings as the source states them, for the method shown. Some entries that bind do so weakly or less than the wild type.

The target of experiment [1] is T1, human CD40L (hCD40L antigen) (human, UniProt P29965 113-261, limits assumed).
T1 sequence (looked up): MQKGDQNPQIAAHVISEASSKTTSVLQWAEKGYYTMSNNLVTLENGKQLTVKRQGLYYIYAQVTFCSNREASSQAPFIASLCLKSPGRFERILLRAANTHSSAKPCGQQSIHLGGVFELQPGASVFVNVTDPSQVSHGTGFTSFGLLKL
The experiment can be described thus: ELISA, bacterial lysate on immobilized human CD40L, anti-Myc detection. (In an ELISA, binding on a coated surface is turned into a signal by an enzyme label.)

Experiment [2] deals with T1, human CD40L (hCD40L antigen). The experiment can be described thus: competitive ELISA, hCD40L (1 nM) against coated rhCD40 Fc; percent inhibition in FIG. 10.

B1: clone 311 (designed binder)
chain: MIPGGLSEAKPATPEIQEIVDKVKPQLEEKTGETYGKLEAVQYKTQVVASQRLWIIYGTNYYIKVRAGDNKYMHLKVFKSLSDWRHHGGWEDLVLTGYQVDKNKDDELTGF
Turning to B1, in experiment [1], the binding result is reported as “binds”.

B2: clone 315 (designed binder)
chain: MIPGGLSEAKPATPEIQEIVDKVKPQLEEKTGETYGKLEAVQYKTQVVIGYKLNYIWGTNYYIKVRAGDNKYMHLKVFKSLIQYRWQDRVEDLVLTGYQVDKNKDDELTGF
With B2, the binding result in experiment [1] is “binds”.

B3: clone 314 (designed binder)
chain: MIPGGLSEAKPATPEIQEIVDKVKPQLEEKTGETYGKLEAVQYKTQVVRDWAYYIYFGTNYYIKVRAGDNKYMHLKVFKSLRSDTLHYWNEDLVLTGYQVDKNKDDELTGF
Consider B3, for which the binding entry in experiment [1] is “binds”.

B4: clone 323 (designed binder)
chain: MIPGGLSEAKPATPEIQEIVDKVKPQLEEKTGETYGKLEAVQYKTQVVELDEPAWDWGTNYYIKVRAGDNKYMHLKVFKSLRQHKKPHPNEDLVLTGYQVDKNKDDELTGF
Turning to B4, the binding entry in experiment [1] is “binds”.

B5: clone 327 (designed binder)
chain: MIPGGLSEAKPATPEIQEIVDKVKPQLEEKTGETYGKLEAVQYKTQVVHWHHYDNIIGTNYYIKVRAGDNKYMHLKVFKSLYQLVDLDLDEDLVLTGYQVDKNKDDELTGF
B5: the binding result in experiment [1] is given as “binds”.

B6: clone 313 (designed binder)
chain: MIPGGLSEAKPATPEIQEIVDKVKPQLEEKTGETYGKLEAVQYKTQVVGQYWFWAPGGTNYYIKVRAGDNKYMHLKVFKSLPSSGGGPKWEDLVLTGYQVDKNKDDELTGF
Consider B6, for which the binding result in experiment [1] is given as “binds”.

B7: clone 324 (designed binder)
chain: MIPGGLSEAKPATPEIQEIVDKVKPQLEEKTGETYGKLEAVQYKTQVVHEKWGFWELGTNYYIKVRAGDNKYMHLKVFKSLHSHRFHEAHEDLVLTGYQVDKNKDDELTGF
Turning to B7, the binding result in experiment [1] is on record as “binds”.

B8: clone 309 (designed binder)
chain: MIPGGLSEAKPATPEIQEIVDKVKPQLEEKTGETYGKLEAVQYKTQVVAFHKLGWILGTNYYIKVRAGDNKYMHLKVFKSLGDESHKWHKEDLVLTGYQVDKNKDDELTGF
Consider B8, for which the binding result in experiment [1] was “binds”.

B9: clone 319 (designed binder)
chain: MIPGGLSEAKPATPEIQEIVDKVKPQLEEKTGETYGKLEAVQYKTQVVPTRWISIYWGTNYYIKVRAGDNKYMHLKVFKSLLNRYYHASIEDLVLTGYQVDKNKDDELTGF
In the case of B9, the binding entry in experiment [1] is recorded as “binds”.

B10: clone 316 (designed binder)
chain: MIPGGLSEAKPATPEIQEIVDKVKPQLEEKTGETYGKLEAVQYKTQVVVSLTEQRWKGTNYYIKVRAGDNKYMHLKVFKSLFQPIKLANAEDLVLTGYQVDKNKDDELTGF
Consider B10, for which the binding entry in experiment [1] is recorded as “binds”.

B11: clone 312 (designed binder)
chain: MIPGGLSEAKPATPEIQEIVDKVKPQLEEKTGETYGKLEAVQYKTQVVQRETHILWSGTNYYIKVRAGDNKYMHLKVFKSLWFDNLHNNFEDLVLTGYQVDKNKDDELTGF
Consider B11, for which, in experiment [1], the binding entry is reported as “binds”.

B12: clone 326 (designed binder)
chain: MIPGGLSEAKPATPEIQEIVDKVKPQLEEKTGETYGKLEAVQYKTQVVYYKVISWWHGTNYYIKVRAGDNKYMHLKVFKSLYKTPFPQYTEDLVLTGYQVDKNKDDELTGF
Turning to B12, the binding result in experiment [1] is “binds”.

B13: clone 318 (designed binder)
chain: MIPGGLSEAKPATPEIQEIVDKVKPQLEEKTGETYGKLEAVQYKTQVVDDDNQHYGLGTNYYIKVRAGDNKYMHLKVFKSLLHNWWKGNWEDLVLTGYQVDKNKDDELTGF
With B13, in experiment [1], the binding result is recorded as “binds”.

B14: clone 320 (designed binder)
chain: MIPGGLSEAKPATPEIQEIVDKVKPQLEEKTGETYGKLEAVQYKTQVVTAFAPNKASGTNYYIKVRAGDNKYMHLKVFKSLRYWAFRYLWEDLVLTGYQVDKNKDDELTGF
As to B14, the binding entry in experiment [1] is listed as “binds”.

B15: clone-230 DT (designed binder)
chain: IPGGLSEAKPATPEIQEIVDKVKPQLEEKTGETYGKLEAVQYKTQVVHYYVHYNDQGTNYYIKVRAGDNKYMHLKVFKSLWGENLFAKWEDLVLTGYQVDKNKDDELTGFAEAAAKEAAAKEAAAKEAAAKEAAAKEAAAKMIPGGLSEAKPATPEIQEIVDKVKPQLEEKTGETYGKLEAVQYKTQVVHYYVHYNDQGTNYYIKVRAGDNKYMHLKVFKSLWGENLFAKWEDLVLTGYQVDKNKDDELTGFAEAAAKEAAAKEAAAKEAAAKEAAAKEAAAKMIPGGLSEAKPATPEIQEIVDKVKPQLEEKTGETYGKLEAVQYKTQVVHYYVHYNDQGTNYYIKVRAGDNKYMHLKVFKSLWGENLFAKWEDLVLTGYQVDKNKDDELTGF
Turning to B15, the binding entry in experiment [2] is on record as “binds”.

B16: clone 308 (designed binder)
chain: MIPGGLSEAKPATPEIQEIVDKVKPQLEEKTGETYGKLEAVQYKTQVVIGQISEQQWGTNYYIKVRAGDNKYMHLKVFKSLHRYWTRDVTEDLVLTGYQVDKNKDDELTGF
Consider B16, for which the binding entry in experiment [1] is “binds”.

B17: clone 325 (designed binder)
chain: MIPGGLSEAKPATPEIQEIVDKVKPQLEEKTGETYGKLEAVQYKTQVVVATADLIKAGTNYYIKVRAGDNKYMHLKVFKSLPWHYPPNKWEDLVLTGYQVDKNKDDELTGF
As for B17, in experiment [1], the binding entry is “binds”.

B18: clone 310 (designed binder)
chain: MIPGGLSEAKPATPEIQEIVDKVKPQLEEKTGETYGKLEAVQYKTQVVFKKWWWKYKGTNYYIKVRAGDNKYMHLKVFKSLRVDEHYIQFEDLVLTGYQVDKNKDDELTGF
Consider B18, for which the binding entry in experiment [1] is on record as “binds”.

B19: clone 317 (designed binder)
chain: MIPGGLSEAKPATPEIQEIVDKVKPQLEEKTGETYGKLEAVQYKTQVVWVSQQHYSHGTNYYIKVRAGDNKYMHLKVFKSLFAFRKYEDREDLVLTGYQVDKNKDDELTGF
As for B19, in experiment [1], the binding result is given as “binds”.

B20: clone 321 (designed binder)
chain: MIPGGLSEAKPATPEIQEIVDKVKPQLEEKTGETYGKLEAVQYKTQVVHYTDFKWHKGTNYYIKVRAGDNKYMHLKVFKSLPFWANEHGWEDLVLTGYQVDKNKDDELTGF
Turning to B20, the binding entry in experiment [1] is “binds”.

B21: clone 235 (designed binder)
chain: MIPGGLSEAKPATPEIQEIVDKVKPQLEEKTGETYGKLEAVQYKTQVVSWVKPDNELGTNYYIKVRAGDNKYMHLKVFKSLWQVHDKQWLEDLVLTGYQVDKNKDDELTGF
For B21, in experiment [1], the binding entry was “binds”.

B22: clone 322 (designed binder)
chain: MIPGGLSEAKPATPEIQEIVDKVKPQLEEKTGETYGKLEAVQYKTQVVNKFWSWAPGGTNYYIKVRAGDNKYMHLKVFKSLADSGFNATPEDLVLTGYQVDKNKDDELTGF
Regarding B22, the binding result in experiment [1] was “binds”.
